Reference: PubChem BioAssay AID2685 (National Center for Advancing Translational Sciences (NCATS), 2010)
In all, about 320,000 compounds went through this assay and about 2,100 (0.66%) were called active. Inconclusive results, whose numbers are uncertain, are shown with a selection of clear calls. Calls follow the shape of the dose curve; as a rule, active = well fitted inhibition curve with a large enough effect in the signal ratio, with a control signal flat (not every such curve was filed as active); inconclusive = small, poorly fitted or top-dose-only effect, or effect the other way, or a change in a side signal; inactive = flat fitted curve, though single readings scatter; the % refers to the signal ratio. Potencies beside an inconclusive call are fits to weak or partial responses and may not hold up.
% is scaled to controls: 0 for no effect and ±100 for the full control effect; potency is read from the fitted curve at half-maximal effect.

Assay: qHTS Assay for Lipid Storage Modulators in Drosophila S3 Cells
Settings: BODIPY lipid droplet fluorescence, 18-24 h, cells fed with added oleic acid; lipid storage change, negative = inhibition: at 46.1 µM (top of the series) unless noted
Method in brief: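 Laser-scanning cytometry quantifies lipid droplet accumulation (500–530 nm total intensity; droplet/cell object ratio) in oleic acid-fed (400 uM added) Drosophila S3 cells treated with a concentration series. 20 uM Triacsin C defined 100% inhibition.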
For Cc1nn(C(C)C(=O)NCc2cccs2)c(=O)c2nn(-c3ccccc3)c(C)c12 (stereo not given), the Potency was inconclusive: 0.731 µM [activator, single point].
With COc1ccc(NC(=O)N(Cc2cccs2)Cc2cc3cc4c(cc3[nH]c2=O)OCO4)cc1 the Potency was inconclusive: 0.366 µM [activator, full curve].
With COc1cc(CNCCc2ccccc2)cc(Br)c1OCC(=O)Nc1ccccc1C the lipid storage change, negative = inhibition was inconclusive: -54.5%.
For O=c1c2oc3ccccc3c2ncn1Cc1ccc(F)cc1, the lipid storage change, negative = inhibition was inconclusive: 10.7%.
For CC(=O)c1c(C)oc(C)c1CSCc1ccc(C(=O)O)o1, the lipid storage change, negative = inhibition was inconclusive: 8.15%.
For COc1ccc(NC(=O)Cn2c(=O)oc3cc(S(=O)(=O)N4CCCC4)ccc32)c(OC)c1, the Potency was inconclusive: 23.1 µM [activator, single point].
For CC(C)c1ccc(C(=O)NN2C(=O)C3CCCCC3C2=O)cc1 (stereo not given), the lipid storage change, negative = inhibition was inconclusive: 18.6%.
With COCCn1c(SCC(=O)NC2CC2)nc2ccccc21 the lipid storage change, negative = inhibition was inconclusive: 66.7%.
For CCOc1ccc(-c2nc(S(=O)(=O)c3ccccc3)c(N3CCC(C(N)=O)CC3)o2)cc1, the Potency was inconclusive: 0.184 µM [activator, partial curve, poor fit].
With Cc1c(N(C)C(=O)C2CCCN2S(=O)(=O)c2ccccc2)c(=O)n(-c2ccccc2)n1C (stereo not given) the lipid storage change, negative = inhibition was inconclusive: -6%.
For COc1ccc(S(=O)(=O)N2CCCCCC2)cc1C(=O)N(C)Cc1ccc(F)cc1, the lipid storage change, negative = inhibition was inconclusive: 30.2%.
With Cc1ccc(S(=O)(=O)c2nc(-c3ccco3)oc2N2CCC(C)CC2)cc1 the lipid storage change, negative = inhibition was inconclusive: -61.9%.
With CCOC(=O)C1(CC)NC(c2ccc(OC)c(OC)c2)C2C(=O)N(c3cccc(C(C)=O)c3)C(=O)C21 (stereo not given) the Potency was inconclusive: 0.0065 µM [activator, full curve, poor fit].
In the case of CCCCC(=O)Nc1ccccc1N1CCN(c2ccc(F)cc2)CC1, the Potency is reported as inconclusive: 0.259 µM [falling, full curve, poor fit].
For Cn1c(SCC(=O)NCc2ccc3c(c2)OCO3)ncc(C(=O)Nc2ccc(F)cc2)c1=O, the lipid storage change, negative = inhibition was “inconclusive”.
In the case of CCOc1ccc(OCC)c(NC(=O)C2CCCN(S(=O)(=O)c3c(C)noc3C)C2)c1 (stereo not given), the lipid storage change, negative = inhibition is reported as inconclusive: 21.3%.
With O=C1OCC(Cn2c3ccccc3c3ccccc32)O1 (stereo not given) the lipid storage change, negative = inhibition was inconclusive: -17.3%.
With Cc1ccc(C2NC(=O)CCC2[N+](=O)[O-])cc1 (stereo not given) the Potency was inconclusive: 6.51 µM [falling, single point].
With CCOCC(=O)Nc1cc(C(=O)OC)ccc1C(=O)OC the Potency was inconclusive: 0.651 µM [activator, single point].
With COc1ccc(NC2CCCN(C(=O)c3cn(C)c4ccccc34)C2)cc1 (stereo not given) the Potency was inconclusive: 29.1 µM [activator, single point].
In the case of CC(=O)Nc1ccc(C(=O)CN2C(=O)NC3(CCOc4ccccc43)C2=O)c(F)c1 (stereo not given), the Potency is reported as inconclusive: 8.2 µM [activator, partial curve].
For N#Cc1cnn2c(-c3ccccc3)ccnc12, the lipid storage change, negative = inhibition was inconclusive: 12.6%.
For Cc1csc(SCC(=O)NC(=O)NCc2ccccc2)n1, the Potency was inconclusive: 14.6 µM [activator, partial curve, poor fit].
For COc1cccc(C(=O)Nc2ccc(N3CCN(C(=O)c4ccco4)CC3)cc2)c1, the Potency was inconclusive: 6.51 µM [activator, single point].
In the case of O=C(c1ccc2c(=O)n(Cc3ccc(Cl)cc3)c(=S)[nH]c2c1)N1CCOCC1, the lipid storage change, negative = inhibition is reported as inconclusive: 79.4%.
For Cc1ccc(S(=O)(=O)N2CCN(C(=O)c3ccccc3)CC2)c(C)c1NS(C)(=O)=O, the lipid storage change, negative = inhibition was inconclusive: -52.4% [at 0.369 µM].
With CCCCOCCCNC(=S)Nc1ccc(S(=O)(=O)N2CCOCC2)cc1 the lipid storage change, negative = inhibition was inconclusive: -13.8%.
For COc1ccc(NC2CCCN(C(=O)CCn3cccn3)C2)cc1 (stereo not given), the lipid storage change, negative = inhibition was inconclusive: 11%.
For Cc1ccc(OCCCCN2CCCCC2)c(Br)c1, the lipid storage change, negative = inhibition was inconclusive: -63%.
With COc1ccc(OC)c(NC(=O)c2ccc(-c3csc(C)n3)cc2)c1 the Potency was inconclusive: 23.1 µM [falling, single point].
With COc1ccc(OCCn2cc(/C=N/NC(=O)c3ccncc3)c3ccccc32)cc1 the lipid storage change, negative = inhibition was inconclusive: -8.18%.
For COc1ccc(CCC(C)N2CCc3ccccc3C2)cc1 (stereo not given), the Potency was inconclusive: 0.651 µM [activator, full curve, poor fit].
For Cc1cccn2c(=O)c3cc(C(=O)NC4CCCCCC4)sc3nc12, the Potency was inconclusive: 0.116 µM [falling, full curve, poor fit].
In the case of COc1ccc(-c2ccc(SCC(=O)N3CC(=O)Nc4ccccc43)nn2)cc1, the Potency is reported as inconclusive: 29.1 µM [falling, single point].
With CSCCC(NC(=O)c1ccco1)C(=O)Nc1cc(C)ccn1 (stereo not given) the Potency was inconclusive: 6.51 µM [falling, single point].
In the case of Cc1c(C)c2cc(Cl)c(O)c(CN3CCN(C)CC3)c2oc1=O, the Potency is reported as inconclusive: 4.11 µM [falling, full curve, poor fit].
With C=CCn1cc(-c2cccc(C(F)(F)F)c2)cc(C#N)c1=O the lipid storage change, negative = inhibition was inconclusive: -12.7%.
With N/C(CC(=O)NCCOc1ccccc1)=N\O the Potency was inconclusive: 6.51 µM [falling, single point].
For COc1ccc(CNC(=O)C2CCNCC2)cc1, the lipid storage change, negative = inhibition was inconclusive: -29%.
In the case of N#Cc1ccccc1Cn1c(=O)oc2ccccc21, the lipid storage change, negative = inhibition is reported as inconclusive: 46.7%.
For CC(=O)c1cccc(S(=O)(=O)N2CCN(CCOc3ccccc3)CC2)c1, the Potency was inconclusive: 29.1 µM [falling, single point].
With Cc1ccc(N(Cc2ccco2)C(=O)c2ccc(N3CCCCC3)c([N+](=O)[O-])c2)cc1 the lipid storage change, negative = inhibition was inconclusive: -3.68%.
In the case of O=C(NNc1nc(-c2ccccc2)cs1)c1cccs1, the lipid storage change, negative = inhibition is reported as inconclusive: -28.2%.
With Cc1cc(C(=O)OC(C)C(=O)NC2CCCCC2)c(C)o1 (stereo not given) the Potency was inconclusive: 0.0046 µM [falling, full curve, poor fit].
With CC(C)CCn1c(=O)c2sccc2n2c(CCCC(=O)N3CCC(N4CCCCC4)CC3)nnc12 the “outcome” value was “inactive [at 46.1 µM]”.
For CCCCc1cc(=O)oc2cc(C)cc(OCC(=O)NCc3ccccn3)c12, the lipid storage change, negative = inhibition was inconclusive: -66.6%.
For CN(C(=O)C1CCC(=O)N(C2CC2)C1)C1CCCCC1 (stereo not given), the lipid storage change, negative = inhibition was inconclusive: 27.1%.
With CC1CN(CCCCSc2ccccc2)CC(C)O1 (stereo not given) the Potency was inconclusive: 7.31 µM [activator, partial curve, poor fit].
For COC(=O)c1ccc2c(c1)N(C)C(=O)CS2, the Potency was inconclusive: 1.64 µM [falling, partial curve].
In the case of C=CCn1c2c(c(=O)[nH]c1=S)CN(C(C)c1ccccc1)CN2 (stereo not given), the lipid storage change, negative = inhibition is reported as inconclusive: 3.5%.
For COc1ccc(CCC(=O)NNC(=O)Nc2cc(Cl)ccc2C)cc1, the Potency was inconclusive: 23.1 µM [activator, partial curve].
In the case of C=CCNC(=O)/C(C#N)=C/c1ccccc1OCc1ccc(C(=O)OC)cc1, the Potency is reported as inconclusive: 16.4 µM [falling, single point].
With O=C(CCCN=C1NS(=O)(=O)c2ccccc21)OCc1ccc(F)cc1 the lipid storage change, negative = inhibition was “inconclusive”.
For Cc1ccc(-c2cc(-c3ccccc3)nc(NN)n2)cc1, the lipid storage change, negative = inhibition was inconclusive: -41.7%.
In the case of CN(c1ccccc1)S(=O)(=O)c1cccc(C(=O)N2CCCCCC2)c1, the lipid storage change, negative = inhibition is reported as “inconclusive”.
For CCCc1nnc(SCC(=O)N2CCCC(C)C2)n1CCCOC (stereo not given), the lipid storage change, negative = inhibition was inconclusive: -23.1%.
In the case of O=C(CN1C(=O)NC2(CCc3ccccc32)C1=O)NCC(=O)Nc1ccc(F)cc1 (stereo not given), the lipid storage change, negative = inhibition is reported as inconclusive: 42.5%.
In the case of Cc1cccc(NC(=O)Nc2c(C)n(C)n(-c3ccccc3)c2=O)c1C, the Potency is reported as inconclusive: 7.31 µM [activator, partial curve].
For CCSc1nc(=S)cc(C)[nH]1, the lipid storage change, negative = inhibition was inconclusive: 6.16%.
For Cc1c(C(=O)N2CCOCC2)sc(NC(=O)CCl)c1C#N, the Potency was inconclusive: 23.1 µM [falling, single point].
With COc1ccc(CCNC(=O)Cc2ccc(C)cc2)cc1OC the Potency was inconclusive: 0.259 µM [falling, full curve].
For Cc1cc(=O)oc2cc(OCC(=O)NC(Cc3c[nH]c4ccc(O)cc34)C(=O)O)c(Cl)cc12 (stereo not given), the lipid storage change, negative = inhibition was inconclusive: -4.61%.
For Cc1ccc2c(c1)CCCN2C(=O)c1cc(C)on1, the lipid storage change, negative = inhibition was inconclusive: 17.3%.
With CSc1nc(-c2ccccc2)[nH]c(=S)c1C(C)=O the lipid storage change, negative = inhibition was inconclusive: 1.79%.
For COc1ccc(C(=O)Nc2nnc(SCC(=O)NCC3CCCO3)s2)cc1OC (stereo not given), the lipid storage change, negative = inhibition was inconclusive: -17.8%.
With CCN(CC(=O)Nc1ccc(NC(C)=O)cc1)C(=O)Cc1coc2cc(C)c(C)cc12 the lipid storage change, negative = inhibition was “inconclusive”.
In the case of COc1ccccc1CNC(=O)C1CCN(S(=O)(=O)c2cccc3nonc23)CC1, the Potency is reported as inconclusive: 29.1 µM [activator, single point].
With Cc1cccc(NC(=O)/C(C#N)=C/c2cn(CC(=O)NCc3ccco3)c3ccccc23)c1C the lipid storage change, negative = inhibition was inconclusive: 5.87%.
With COc1ccccc1CNC(=O)Cn1cc([N+](=O)[O-])ccc1=O the lipid storage change, negative = inhibition was inconclusive: -18.5%.
With Cc1c(Cl)c(C(F)F)nn1CC(=O)NC1C(=O)N2C(C(=O)O)=C(CSc3nnnn3C)CSC12 (stereo not given) the lipid storage change, negative = inhibition was inconclusive: -4.93%.
For FC(F)(F)c1ccc(-n2ccnc2)nc1, the lipid storage change, negative = inhibition was inconclusive: 35.1%.
With O=S(=O)(c1cccc2cccnc12)N1CCN(Cc2ccccc2)CC1 the lipid storage change, negative = inhibition was inconclusive: 8.93%.
For O=C(Nc1cnc2ccccc2c1)N1CCCCC1, the lipid storage change, negative = inhibition was inconclusive: 36.6%.
With O=C(c1ccco1)N1CCN(c2ncnc3c(-c4ccc(Cl)cc4)nsc23)CC1 the Potency was inconclusive: 3.26 µM [activator, full curve].
For O=C(Nc1cc(Cl)ccc1-n1cncn1)c1ccc(F)c(S(=O)(=O)N2CCOCC2)c1, the Potency was inconclusive: 1.46 µM [activator, full curve, poor fit].
